Measured values as given in patent publication US20210353564A1, “TREATMENTS FOR ZIKA VIRUS INFECTION” (Saint Louis University, priority 2018, published 2021).
“Also recorded” adds a separate entry of the source. At least one structure is not confirmed: it was looked up by name or label, or the drawing left a doubt.

Tests used:
Zika virus = experiment: Focus Forming Assay, Vero cells drugged at T-1, T0, T1, T8, T12 relative to addition of virus; assay type: cell-based; conditions: for effect on Zika virus replication (focus count): remaining virus after 39 hours
Protocol: FIGS. 3-14. Focus Forming Assay. Data represent Vero cells drugged with SERM compounds an hour before addition of virus (T-1), upon addition of virus (T0), one hour after addition of virus (T1), eight hours after addition of virus (T8), and twelve hours after addition of virus. Each compound was screened as triplicate measurements and performed in duplicate. The data is shown as focus count (normalized to the control wells) which represents the amount of remaining virus after 39 hours as a function of log concentration.

ZIKV = experiment: mouse model of ZIKV disease; assay type: in vivo, Ifnar-/- mice; conditions: 1 mg/animal/day intraperitoneally, three doses starting one day prior to infection; preliminary
ZIKV strain PRVABC59 = experiment: focus reduction test of ZIKV on Vero cells; conditions: focus reduction test (FIG. 1B)

| SMILES | change of EC50 with time of compound addition (Zika virus; addition T-1 to T12 relative to virus) | effect on Zika virus replication (focus count) (Zika virus) | survival after ZIKV infection (ZIKV) | weight loss (morbidity) after ZIKV infection (ZIKV) | antiviral activity against ZIKV grown in Vero cells (ZIKV strain PRVABC59) |
| --- | --- | --- | --- | --- | --- |
| COc1ccc2c(c[n+](C)c3c4cc5c(cc4ccc23)OCO5)c1OC [Chelerythrine Chloride] | EC50 does not change substantially from T-1 to T12 | prevents viral replication |  |  |  |
| CC/C(=C(\c1ccc(O)cc1)c1ccc(OCCN(C)C)cc1)c1ccccc1 [TAM-OH, 4-hydroxytamoxifen] |  | prevents viral replication | increases survival | less weight loss; also recorded: reduction in weight loss | capable of reducing ZIKV infection |
